Here are results for one substance from paper PMC8406222.

Amino acid sequences for entries named in this document (tags omitted). A change or cut given only in a name is not applied to a line headed by its entry.
UniProt P9WQA1, whole entry, looked up, stated change not applied: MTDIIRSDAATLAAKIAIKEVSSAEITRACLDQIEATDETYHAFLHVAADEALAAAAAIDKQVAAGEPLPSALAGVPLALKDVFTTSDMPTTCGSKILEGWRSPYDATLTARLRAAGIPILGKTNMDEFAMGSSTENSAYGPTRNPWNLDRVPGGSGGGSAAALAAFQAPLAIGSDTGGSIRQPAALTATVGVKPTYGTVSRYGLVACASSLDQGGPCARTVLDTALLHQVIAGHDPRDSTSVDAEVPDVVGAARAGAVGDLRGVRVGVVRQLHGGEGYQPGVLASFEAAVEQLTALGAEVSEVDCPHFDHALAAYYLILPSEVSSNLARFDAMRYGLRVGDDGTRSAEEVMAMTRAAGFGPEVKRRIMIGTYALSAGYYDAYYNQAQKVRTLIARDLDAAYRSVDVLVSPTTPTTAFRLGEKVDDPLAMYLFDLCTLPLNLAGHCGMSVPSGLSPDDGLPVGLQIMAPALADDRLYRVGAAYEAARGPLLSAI

No constants are given. Whether binding was seen depends on the method and setting. Some results given as binding are weak or reduced against the parent protein; the word gives no strength.

The experiment has as its target M. tuberculosis GatB with C-terminal 6xHis tag (M. tuberculosis) (UniProt P9WN61). The experiment in a line: tandem affinity co-purification (Ni-NTA, then Strep-Tactin).

With “M. tuberculosis GatA-K61N (from UniProt P9WQA1 1-494)”, the binding entry is “binds”.
